# Experimental data published in PubChem BioAssay AID220 (DTP/NCI, 2004).
# The list does not hold the whole screen: its compounds were picked by chemical class. Other doses and runs of a compound may be missing. T/C gives the treated animals as a percentage of the vehicle group. Schedule codes are those of the source, read here as Q, the interval in days (D) or hours (H), X, the number of doses. Some entries show no survivor count and are marked so; the dose need not have been tolerated. Some entries hold several experiments; their values stand side by side, smallest first. Some T/C values are followed by the survivors on the day toxicity was checked; where neither a count nor a note follows, no animal had died by that day. Some doses have a count of surviving animals in place of a T/C: the source holds a T/C of zero for them, seemingly a mark for toxic or unscored doses. Counts of survivors are from the toxicity check, whose day is not always given; animals may have died later.
# Tested on: CD8F1 mice, subcutaneous mammary adenocarcinoma, T/C%
# Assay: NCI In Vivo Anticancer Drug Screen. Data for tumor model Mammary Adenocarcinoma CD8F1 (subcutaneous) in CD8F1
# Conditions: higher T/C = larger tumour
# Protocol: The antitumor activity of compounds was measured in mice bearing transplantable tumors. Survival or tumor size were measured and the results are expressed as the measurement made in the treated group (T) divided by the measurement made in the vehicle treated control group (C). The tumor model used in this assay is Mammary Adenocarcinoma CD8F1 (subcutaneous) in CD8F1
# [1] = T/C endpoint: median tumor weight (est.), dose: 12.5 mg/kg/injection, schedule: Q07DX005 (ip), vehicle: Klucel (hydroxypropylcellulose) (HPC), evaluation day not shown
# [2] = T/C endpoint: median tumor weight (est.), dose: 25.0 mg/kg/injection, schedule: Q07DX005 (ip), vehicle: Klucel (hydroxypropylcellulose) (HPC), evaluation day not shown
# [3] = T/C endpoint: median tumor weight (est.), dose: 50.0 mg/kg/injection, schedule: Q07DX005 (ip), vehicle: Klucel (hydroxypropylcellulose) (HPC), evaluation day not shown
# [4] = T/C endpoint: median tumor weight (est.), dose: 6.25 mg/kg/injection, schedule: Q07DX005 (ip), vehicle: Klucel (hydroxypropylcellulose) (HPC), evaluation day not shown
structure (smiles),measurement,setting,value
O=C(O)c1ccc(CN(CCCl)CCCl)cc1,T/C,"T/C endpoint: mean tumor weight, dose: 0.12 mg/kg/injection, schedule: Q07DX006 (ip), vehicle: water, evaluation day not shown",29 % of control [survivor count not shown]
same,T/C,"T/C endpoint: mean tumor weight, dose: 0.25 mg/kg/injection, schedule: Q07DX006 (ip), vehicle: water, evaluation day not shown",55 % of control [survivor count not shown]
same,T/C,"T/C endpoint: mean tumor weight, dose: 0.5 mg/kg/injection, schedule: Q07DX006 (ip), vehicle: water, evaluation day not shown",25 % of control [survivor count not shown]
same,T/C,"T/C endpoint: mean tumor weight, dose: 1.0 mg/kg/injection, schedule: Q07DX006 (ip), vehicle: water, evaluation day not shown",33 % of control [survivor count not shown]
same,T/C,"T/C endpoint: median tumor weight (est.), dose: 0.12 mg/kg/injection, schedule: Q07DX005 (ip), vehicle: water, evaluation day not shown",54 % of control [survivor count not shown]
same,T/C,"T/C endpoint: median tumor weight (est.), dose: 0.25 mg/kg/injection, schedule: Q07DX005 (ip), vehicle: water, evaluation day not shown",58 % of control [survivor count not shown]
same,T/C,"T/C endpoint: median tumor weight (est.), dose: 0.5 mg/kg/injection, schedule: Q07DX005 (ip), vehicle: water, evaluation day not shown",123 % of control [survivor count not shown]
same,T/C,"T/C endpoint: median tumor weight (est.), dose: 1.0 mg/kg/injection, schedule: Q07DX005 (ip), vehicle: water, evaluation day not shown",106 % of control [survivor count not shown]
C[N+](CCCl)(CCCl)Cc1ccc([N+](=O)[O-])cc1,T/C,"T/C endpoint: median tumor weight (est.), dose: 6.25 mg/kg/injection, schedule: Q07DX005 (ip), vehicle: saline, evaluation day not shown",34 % of control [survivor count not shown]
same,T/C,"T/C endpoint: median tumor weight (est.), dose: 12.5 mg/kg/injection, schedule: Q07DX005 (ip), vehicle: saline, evaluation day not shown",29 % of control [survivor count not shown]
same,T/C,"T/C endpoint: median tumor weight (est.), dose: 25.0 mg/kg/injection, schedule: Q07DX005 (ip), vehicle: saline, evaluation day not shown",39 % of control [survivor count not shown]
same,T/C,"T/C endpoint: median tumor weight (est.), dose: 50.0 mg/kg/injection, schedule: Q07DX005 (ip), vehicle: saline, evaluation day not shown",9 % of control [survivor count not shown]
NS(=O)(=O)c1ccc(N(CCCl)CCCl)cc1,T/C,[1],178 % of control [survivor count not shown]
same,T/C,[2],143 % of control [survivor count not shown]
same,T/C,[3],127 % of control [survivor count not shown]
same,T/C,"T/C endpoint: median tumor weight (est.), dose: 100.0 mg/kg/injection, schedule: Q07DX005 (ip), vehicle: Klucel (hydroxypropylcellulose) (HPC), evaluation day not shown",93 % of control [survivor count not shown]
CC1=CC(=O)C(N(CCCl)CCCl)=CC1=O,T/C,"T/C endpoint: median tumor weight (est.), dose: 1.56 mg/kg/injection, schedule: Q07DX005 (ip), vehicle: Klucel (hydroxypropylcellulose) (HPC), evaluation day not shown",85 % of control [survivor count not shown]
same,T/C,"T/C endpoint: median tumor weight (est.), dose: 3.13 mg/kg/injection, schedule: Q07DX005 (ip), vehicle: Klucel (hydroxypropylcellulose) (HPC), evaluation day not shown",68 % of control [survivor count not shown]
same,T/C,[4],10 [survivor count not shown] and 19 % of control [survivor count not shown]
same,T/C,[1],1 % of control [survivor count not shown]
same,T/C,"T/C endpoint: median tumor weight change, dose: 3.75 mg/kg/injection, schedule: Q01DX001 (ip), vehicle: Klucel (hydroxypropylcellulose) (HPC), evaluated on day 34",143 % of control
same,T/C,"T/C endpoint: median tumor weight change, dose: 3.75 mg/kg/injection, schedule: Q01DX001 (ip), vehicle: Klucel (hydroxypropylcellulose) (HPC), evaluated on day 36",59 % of control
same,T/C,"T/C endpoint: median tumor weight change, dose: 7.5 mg/kg/injection, schedule: Q01DX001 (ip), vehicle: Klucel (hydroxypropylcellulose) (HPC), evaluated on day 32",27 % of control
same,T/C,"T/C endpoint: median tumor weight change, dose: 7.5 mg/kg/injection, schedule: Q01DX001 (ip), vehicle: Klucel (hydroxypropylcellulose) (HPC), evaluated on day 34",72 % of control
same,T/C,"T/C endpoint: median tumor weight change, dose: 7.5 mg/kg/injection, schedule: Q01DX001 (ip), vehicle: Klucel (hydroxypropylcellulose) (HPC), evaluated on day 36",36 % of control
NC1CCCCC1.NP(=O)(O)N(CCCl)CCCl,T/C,"T/C endpoint: median tumor weight change, dose: 25.0 mg/kg/injection, schedule: Q01DX001 (ip), vehicle: water, evaluated on day 28",108 % of control
same,T/C,"T/C endpoint: median tumor weight change, dose: 25.0 mg/kg/injection, schedule: Q01DX001 (ip), vehicle: water, evaluated on day 35",57 % of control
same,T/C,"T/C endpoint: median tumor weight change, dose: 50.0 mg/kg/injection, schedule: Q01DX001 (ip), vehicle: water, evaluated on day 28",133 % of control
same,T/C,"T/C endpoint: median tumor weight change, dose: 50.0 mg/kg/injection, schedule: Q01DX001 (ip), vehicle: water, evaluated on day 33",21 % of control
same,T/C,"T/C endpoint: median tumor weight change, dose: 50.0 mg/kg/injection, schedule: Q01DX001 (ip), vehicle: water, evaluated on day 35",58 % of control
same,T/C,"T/C endpoint: median tumor weight change, dose: 50.0 mg/kg/injection, schedule: Q01DX001 (ip), vehicle: water, evaluated on day 37",72 % of control
same,T/C,"T/C endpoint: median tumor weight change, dose: 100.0 mg/kg/injection, schedule: Q01DX001 (ip), vehicle: water, evaluated on day 28",63 % of control
same,T/C,"T/C endpoint: median tumor weight change, dose: 100.0 mg/kg/injection, schedule: Q01DX001 (ip), vehicle: water, evaluated on day 33",29 % of control
same,T/C,"T/C endpoint: median tumor weight change, dose: 100.0 mg/kg/injection, schedule: Q01DX001 (ip), vehicle: water, evaluated on day 35",8 % of control
same,T/C,"T/C endpoint: median tumor weight change, dose: 100.0 mg/kg/injection, schedule: Q01DX001 (ip), vehicle: water, evaluated on day 37",17 % of control
same,T/C,"T/C endpoint: median tumor weight change, dose: 200.0 mg/kg/injection, schedule: Q01DX001 (ip), vehicle: water, evaluated on day 28",36 % of control
same,T/C,"T/C endpoint: median tumor weight change, dose: 200.0 mg/kg/injection, schedule: Q01DX001 (ip), vehicle: water, evaluated on day 33",12 % of control [9 of 10 alive on day 33]
same,survivor count,"T/C endpoint: median tumor weight change, dose: 200.0 mg/kg/injection, schedule: Q01DX001 (ip), vehicle: water",0 of 10 on day 37 and 3 of 10 on day 35
same,T/C,"T/C endpoint: median tumor weight change, dose: 400.0 mg/kg/injection, schedule: Q01DX001 (ip), vehicle: water, evaluated on day 28",38 % of control [7 of 10 alive on day 28]
same,survivor count,"T/C endpoint: median tumor weight change, dose: 400.0 mg/kg/injection, schedule: Q01DX001 (ip), vehicle: water","0 of 10 on day 33, 0 of 10 on day 35, 1 of 10 on day 37"
Cc1ccc(N(CCBr)CCBr)cc1,T/C,"T/C endpoint: median tumor weight (est.), dose: 3.25 mg/kg/injection, schedule: Q07DX005 (ip), vehicle: Klucel (hydroxypropylcellulose) (HPC), evaluation day not shown",167 % of control [survivor count not shown]
same,T/C,[4],164 % of control [survivor count not shown]
same,T/C,"T/C endpoint: median tumor weight (est.), dose: 12.5 mg/kg/injection, schedule: Q01DX005 (ip), vehicle: Klucel (hydroxypropylcellulose) (HPC), evaluation day not shown",16 % of control [survivor count not shown]
same,T/C,[1],103 % of control [survivor count not shown]
same,T/C,"T/C endpoint: median tumor weight (est.), dose: 25.0 mg/kg/injection, schedule: Q01DX005 (ip), vehicle: Klucel (hydroxypropylcellulose) (HPC), evaluation day not shown",48 % of control [survivor count not shown]
COc1ccc(N(CCCl)CCCl)cc1,T/C,"T/C endpoint: median tumor weight (est.), dose: 12.5 mg/kg/injection, schedule: Q07DX005 (ip), vehicle: Klucel (hydroxypropylcellulose) (HPC), evaluated on day 30",134 % of control
same,T/C,[1],66 % of control [survivor count not shown]
same,T/C,"T/C endpoint: median tumor weight (est.), dose: 25.0 mg/kg/injection, schedule: Q07DX005 (ip), vehicle: Klucel (hydroxypropylcellulose) (HPC), evaluated on day 30",50 % of control
same,T/C,[2],66 % of control [survivor count not shown]
same,T/C,"T/C endpoint: median tumor weight (est.), dose: 50.0 mg/kg/injection, schedule: Q07DX005 (ip), vehicle: Klucel (hydroxypropylcellulose) (HPC), evaluated on day 30",11 % of control
same,T/C,[3],38 % of control [survivor count not shown]
same,survivor count,"T/C endpoint: median tumor weight (est.), dose: 100.0 mg/kg/injection, schedule: Q07DX005 (ip), vehicle: Klucel (hydroxypropylcellulose) (HPC)",0 of 10 on day 30
